Test results taken from PubChem BioAssay AID2551 (National Center for Advancing Translational Sciences (NCATS), 2010).
Screen size: about 310,000 compounds; about 17,000 (5.5%) were called active. The inconclusive results got no clear call from the source; some entries with a clear call stand among them for comparison. Calls follow the shape of the dose curve; as a rule, active = well fitted inhibition curve with a large enough effect; inconclusive = small, poorly fitted or top-dose-only effect, or effect the other way; inactive = no such curve, though single readings can be large or run the other way. Potencies beside an inconclusive call are fits to weak or partial responses and may not hold up.

By UniProt entry, the sequences of proteins in these tests, tags left out. Where a name states a change or a piece, a line headed by the entry shows the natural chain unless it says otherwise.
UniProt P51450: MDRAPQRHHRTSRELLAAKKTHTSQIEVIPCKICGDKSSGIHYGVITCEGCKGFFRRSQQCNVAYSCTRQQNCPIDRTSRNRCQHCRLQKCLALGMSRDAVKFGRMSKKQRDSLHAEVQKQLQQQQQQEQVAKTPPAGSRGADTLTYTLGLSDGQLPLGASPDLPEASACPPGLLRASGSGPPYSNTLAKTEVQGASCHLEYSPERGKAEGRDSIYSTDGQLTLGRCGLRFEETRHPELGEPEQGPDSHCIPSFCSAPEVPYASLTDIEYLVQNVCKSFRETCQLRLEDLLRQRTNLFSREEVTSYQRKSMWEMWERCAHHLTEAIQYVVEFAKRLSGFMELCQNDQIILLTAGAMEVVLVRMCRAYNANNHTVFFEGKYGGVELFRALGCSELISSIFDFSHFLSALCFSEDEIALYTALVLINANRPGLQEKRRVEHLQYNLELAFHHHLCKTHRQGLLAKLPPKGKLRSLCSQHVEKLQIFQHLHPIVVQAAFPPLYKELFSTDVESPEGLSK

molecular target: Nuclear receptor ROR-gamma (Mus musculus) (UniProt P51450); experiment: qHTS for inhibitors of ROR gamma transcriptional activity; conditions: Drosophila S2 Gal4-RORgamma UAS-luciferase reporter, 20 h; series mostly up to 53.6 µM; also: nearly all actives have a fitted effect of over 60% in size
How it was run: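 Stable Schneider cell line, Gal4 DNA-binding domain fused to ROR gamma, UAS-luciferase. Cmpd 1 hr RT → CuSO4 700 uM final → 20 hr RT → luciferase reagent 10 min → luminescence.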
Potency is read from the fitted curve at half-maximal effect.

Row | Structure (SMILES) | Potency
1 | CC(C)c1ccc(NC(=S)NCc2cccs2)cc1 | active: 15.8 µM
2 | COc1ccc(N2CCN(c3nc4c(C)cccn4c(=O)c3/C=C(\C#N)C(N)=O)CC2)cc1 | inactive
3 | O=C(O)c1cnc(-c2ccccc2)nc1-c1ccccc1 | inactive
4 | CS(=O)(=O)c1ccc2nc(NC(=O)c3ccco3)sc2c1 | inconclusive: 12.6 µM [inhibitor, single point]
5 | O=C(Nc1ccc(-c2nc3ccccc3s2)cc1)C1=COCCO1 | active: 2 µM
6 | Nc1c(Cl)ncnc1NCc1ccccc1 | inconclusive: 35.5 µM [activator, single point]
7 | NS(=O)(=O)c1cccc(NC(=O)COC(=O)COc2ccc3ccccc3c2)c1 | inactive
8 | O=C1c2ccccc2C(Nc2ccc(F)c(Cl)c2)N1Cc1ccco1 (stereo unspecified) | inconclusive: 22.4 µM [activator, single point]
9 | O=C(Nc1ccccc1Cl)c1cc2ccccc2o/c1=N\O | inconclusive: 22.4 µM [inhibitor, single point]
10 | Cc1ccc(NC(=S)Nc2nc(CC(=O)Nc3ccccc3)cs2)cc1 | active: 1.41 µM
11 | O=C(CCc1nnc(COc2ccccc2)o1)NCc1ccccc1C(F)(F)F | inactive
12 | O=C(NC(=S)NCCC1=CCCCC1)c1ccc(Br)o1 | active: 4.47 µM
13 | COc1ccc(OC)c(-n2c(CN3CCC(C(N)=O)CC3)nc3ccccc3c2=O)c1 | inconclusive: 35.5 µM [inhibitor, single point]
14 | Cc1cccc2cc(CN(CC3CCCO3)C(c3nnnn3Cc3ccco3)C(C)C)c(=O)[nH]c12 (stereo unspecified) | inconclusive: 15.8 µM [activator, single point]
15 | CCc1cc(C(=O)NNC(=S)NCC2CCCO2)cs1 (stereo unspecified) | active: 15.8 µM
16 | CCn1c(=O)c(C(=O)NCc2ccccc2)c(O)c2ccccc21 | inconclusive: 25.1 µM [inhibitor, single point]
17 | Cc1nc2ccccc2c2oc(C(=O)N3CCN(c4ccc([N+](=O)[O-])cc4)CC3)cc12 | inactive
18 | O=C(NCc1cccs1)C1CCCN(S(=O)(=O)c2ccc3c(c2)OCO3)C1 (stereo unspecified) | inconclusive: 0.398 µM [inhibitor, full curve, poor fit]
19 | CCCCCCC1CC(CCC(=O)Nc2ccc([N+](=O)[O-])cc2)C(=O)O1 (stereo unspecified) | inconclusive: 10 µM [inhibitor, partial curve, poor fit]
20 | Cn1nc(-c2ccccc2)c2ncc(C(F)(F)F)cc21 | inconclusive: 0.126 µM [inhibitor, full curve, poor fit]
21 | CCOc1cc2c3c(c1)C1(C(=O)N3C(C)(C)CC2C)C(C#N)=C(N)N2C(=C1C#N)Nc1ccccc12 (stereo unspecified) | inconclusive: 31.6 µM [activator, single point]

2 of the compounds above, field by field:
CCc1cc(C(=O)NNC(=S)NCC2CCCO2)cs1 (stereo unspecified)
  Potency: active: 15.8 µM
CCn1c(=O)c(C(=O)NCc2ccccc2)c(O)c2ccccc21
  Potency: inconclusive: 25.1 µM [inhibitor, single point]
